The record followed here is article PMC3573055.

Protein sequences, listed by entry. Tags and fused reporters are not part of them. Residues count along the entry.
UniProt P10909, residues 23-449: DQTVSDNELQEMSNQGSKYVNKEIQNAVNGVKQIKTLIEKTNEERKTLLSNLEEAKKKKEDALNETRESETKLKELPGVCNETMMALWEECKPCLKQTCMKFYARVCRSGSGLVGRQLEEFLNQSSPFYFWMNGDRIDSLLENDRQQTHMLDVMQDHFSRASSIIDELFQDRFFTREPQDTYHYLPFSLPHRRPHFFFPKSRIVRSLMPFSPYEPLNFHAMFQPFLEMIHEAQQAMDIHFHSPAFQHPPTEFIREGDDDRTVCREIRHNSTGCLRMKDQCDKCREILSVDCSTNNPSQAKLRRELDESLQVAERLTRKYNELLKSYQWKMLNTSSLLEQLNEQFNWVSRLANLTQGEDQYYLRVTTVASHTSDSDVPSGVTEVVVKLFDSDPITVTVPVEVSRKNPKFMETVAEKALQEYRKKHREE
UniProt P11021, residues 19-654: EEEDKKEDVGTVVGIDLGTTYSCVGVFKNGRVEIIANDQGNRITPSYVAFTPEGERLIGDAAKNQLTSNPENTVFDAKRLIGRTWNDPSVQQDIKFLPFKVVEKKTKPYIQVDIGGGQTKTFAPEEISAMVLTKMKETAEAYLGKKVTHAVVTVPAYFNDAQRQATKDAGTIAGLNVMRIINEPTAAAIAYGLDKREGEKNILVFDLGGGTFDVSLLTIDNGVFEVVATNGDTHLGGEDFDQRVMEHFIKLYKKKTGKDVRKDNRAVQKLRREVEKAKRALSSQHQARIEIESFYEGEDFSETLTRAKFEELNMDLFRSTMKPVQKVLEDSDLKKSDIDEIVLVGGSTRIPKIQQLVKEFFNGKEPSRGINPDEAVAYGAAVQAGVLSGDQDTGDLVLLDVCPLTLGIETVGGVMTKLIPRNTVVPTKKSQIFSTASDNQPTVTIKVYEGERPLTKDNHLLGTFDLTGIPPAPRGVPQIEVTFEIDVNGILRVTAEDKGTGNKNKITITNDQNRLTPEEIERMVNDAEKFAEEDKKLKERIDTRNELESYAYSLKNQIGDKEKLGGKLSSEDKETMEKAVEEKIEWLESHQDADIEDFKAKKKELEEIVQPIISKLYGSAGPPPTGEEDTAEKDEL

No constants are given. Whether binding was seen depends on the method and setting. In cells and extracts the contact can be indirect. Some results given as binding are weak or reduced against the parent protein; the word gives no strength.

In the experiment the target is Clusterin (CLU) (human (endogenous in SMMC7721, HCCLM3 and HepG2)) (UniProt P10909). Nature of the experiment: co-IP; pre-cleared whole cell lysates of SMMC7721, HCCLM3 and HepG2 cells, with or without 1 µg/ml tunicamycin for 24 h, incubated with goat anti-CLU antibody conjugated to AminoLink Plus Resin overnight at 4°C; gentle non-reducing, non-denaturing elution; Western blot with anti-GRP78. In general terms: In western blotting, separated proteins are transferred to a membrane and probed.

For “Glucose-regulated protein 78 (GRP78) (from UniProt P11021 19-654)”, the binding result is reported as “binds”.
